Measured values from patent publication US20200317791A1.

How the values were obtained:
B53,Bw4_B*53:01 (human) = assay: LABScreen beads
B63,Bw4_B*15:16 (human) = assay: LABScreen beads
B35,Bw6_B*35:01 (human) = assay: LABScreen beads
B37,Bw4_B*37:01 (human) = assay: LABScreen beads
B81,Bw6_B*81:01 (human) = assay: LABScreen beads
B65,Bw6_B*14:02 (human) = assay: LABScreen beads
B75,Bw6_B*15:11 (human) = assay: LABScreen beads
B54,Bw6_B*54:01 (human) = assay: LABScreen beads
B13,Bw4_B*13:01 (human) = assay: LABScreen beads
B61,Bw6_B*40:06 (human) = assay: LABScreen beads
B82,Bw6_B*82:01 (human) = assay: LABScreen beads
B44,Bw4_B*44:02 (human) = assay: LABScreen beads
B72,Bw6_B*15:03 (human) = assay: LABScreen beads
B18,Bw6_B*18:01 (human) = assay: LABScreen beads
Cw16_C*16:01 (human) = assay: LABScreen beads
B58,Bw4_B*58:01 (human) = assay: LABScreen beads
B50,Bw6_B*50:01 (human) = assay: LABScreen beads
Cw10_C*03:02 (human) = assay: LABScreen beads
B27,Bw6_B*27:08 (human) = assay: LABScreen beads
B51,Bw4_B*51:01 (human) = assay: LABScreen beads
B47,Bw4_B*47:01 (human) = assay: LABScreen beads
B49,Bw4_B*49:01 (human) = assay: LABScreen beads
B42,Bw6_B*42:01 (human) = assay: LABScreen beads
B48,Bw6_B*48:01 (human) = assay: LABScreen beads
Cw14_C*14:02 (human) = assay: LABScreen beads
B62,Bw6_B*15:01 (human) = assay: LABScreen beads
B52,Bw4_B*52:01 (human) = assay: LABScreen beads
B57,Bw4_B*57:03 (human) = assay: LABScreen beads
B71,Bw6_B*15:10 (human) = assay: LABScreen beads
B75,Bw6_B*15:02 (human) = assay: LABScreen beads
B61,Bw6_B*40:02 (human) = assay: LABScreen beads
B41,Bw6_B*41:01 (human) = assay: LABScreen beads
B76,Bw6_B*15:12 (human) = assay: LABScreen beads
B39,Bw6_B*39:01 (human) = assay: LABScreen beads
B60,Bw6_B*40:01 (human) = assay: LABScreen beads
Cw9_C*03:03 (human) = assay: LABScreen beads
B59,Bw4_B*59:01 (human) = assay: LABScreen beads
B13,Bw4_B*13:02 (human) = assay: LABScreen beads
B51,Bw4_B*51:02 (human) = assay: LABScreen beads
B8,Bw6_B*08:01 (human) = assay: LABScreen beads
B77,Bw4_B*15:13 (human) = assay: LABScreen beads
B55,Bw6_B*55:01 (human) = assay: LABScreen beads
B57,Bw4_B*57:01 (human) = assay: LABScreen beads
B64,Bw6_B*14:01 (human) = assay: LABScreen beads
B56,Bw6_B*56:01 (human) = assay: LABScreen beads
B78,Bw6_B*78:01 (human) = assay: LABScreen beads
B45,Bw6_B*45:01 (human) = assay: LABScreen beads
B67,Bw6_B*67:01 (human) = assay: LABScreen beads
B44,Bw4_B*44:03 (human) = assay: LABScreen beads
B38,Bw4_B*38:01 (human) = assay: LABScreen beads
Cw8_C*08:01 (human) = assay: LABScreen beads
Cw5_C*05:01 (human) = assay: LABScreen beads, 10 µg/ml antibody
Cw17_C*17:01 (human) = assay: LABScreen beads, 10 µg/ml antibody
Cw2_C*02:02 (human) = assay: LABScreen beads, 10 µg/ml antibody
Cw15_C*15:02 (human) = assay: LABScreen beads, 10 µg/ml antibody
Cw18_C*18:02 (human) = assay: LABScreen beads, 10 µg/ml antibody
Cw4_C*04:01 (human) = assay: LABScreen beads, 10 µg/ml antibody

- binding (B53,Bw4_B*53:01 (human)): no binding (tested: 10 µg/ml)
- binding (B63,Bw4_B*15:16 (human)): no binding (tested: 10 µg/ml)
- binding (B35,Bw6_B*35:01 (human)): no binding (tested: 10 µg/ml)
- binding (B37,Bw4_B*37:01 (human)): no binding (tested: 10 µg/ml)
- binding (B81,Bw6_B*81:01 (human)): no binding (tested: 10 µg/ml)
- binding (B65,Bw6_B*14:02 (human)): no binding (tested: 10 µg/ml)
- binding (B75,Bw6_B*15:11 (human)): no binding (tested: 10 µg/ml)
- binding (B54,Bw6_B*54:01 (human)): no binding (tested: 10 µg/ml)
- binding (B13,Bw4_B*13:01 (human)): no binding (tested: 10 µg/ml)
- binding (B61,Bw6_B*40:06 (human)): no binding (tested: 10 µg/ml)
- binding (B82,Bw6_B*82:01 (human)): no binding (tested: 10 µg/ml)
- binding (B44,Bw4_B*44:02 (human)): no binding (tested: 10 µg/ml)
- binding (B72,Bw6_B*15:03 (human)): no binding (tested: 10 µg/ml)
- binding (B18,Bw6_B*18:01 (human)): no binding (tested: 10 µg/ml)
- binding (Cw16_C*16:01 (human)): no binding (tested: 10 µg/ml)
- binding (B58,Bw4_B*58:01 (human)): no binding (tested: 10 µg/ml)
- binding (B50,Bw6_B*50:01 (human)): no binding (tested: 10 µg/ml)
- binding (Cw10_C*03:02 (human)): no binding (tested: 10 µg/ml)
- binding (B27,Bw6_B*27:08 (human)): no binding (tested: 10 µg/ml)
- binding (B51,Bw4_B*51:01 (human)): no binding (tested: 10 µg/ml)
- binding (B47,Bw4_B*47:01 (human)): no binding (tested: 10 µg/ml)
- binding (B49,Bw4_B*49:01 (human)): no binding (tested: 10 µg/ml)
- binding (B42,Bw6_B*42:01 (human)): no binding (tested: 10 µg/ml)
- binding (B48,Bw6_B*48:01 (human)): no binding (tested: 10 µg/ml)
- binding (Cw14_C*14:02 (human)): no binding (tested: 10 µg/ml)
- binding (B62,Bw6_B*15:01 (human)): no binding (tested: 10 µg/ml)
- binding (B52,Bw4_B*52:01 (human)): no binding (tested: 10 µg/ml)
- binding (B57,Bw4_B*57:03 (human)): no binding (tested: 10 µg/ml)
- binding (B71,Bw6_B*15:10 (human)): no binding (tested: 10 µg/ml)
- binding (B75,Bw6_B*15:02 (human)): no binding (tested: 10 µg/ml)
- binding (B61,Bw6_B*40:02 (human)): no binding (tested: 10 µg/ml)
- binding (B41,Bw6_B*41:01 (human)): no binding (tested: 10 µg/ml)
- binding (B76,Bw6_B*15:12 (human)): no binding (tested: 10 µg/ml)
- binding (B39,Bw6_B*39:01 (human)): no binding (tested: 10 µg/ml)
- binding (B60,Bw6_B*40:01 (human)): no binding (tested: 10 µg/ml)
- binding (Cw9_C*03:03 (human)): no binding (tested: 10 µg/ml)
- binding (B59,Bw4_B*59:01 (human)): no binding (tested: 10 µg/ml)
- binding (B13,Bw4_B*13:02 (human)): no binding (tested: 10 µg/ml)
- binding (B51,Bw4_B*51:02 (human)): no binding (tested: 10 µg/ml)
- binding (B8,Bw6_B*08:01 (human)): no binding (tested: 10 µg/ml)
- binding (B77,Bw4_B*15:13 (human)): no binding (tested: 10 µg/ml)
- binding (B55,Bw6_B*55:01 (human)): no binding (tested: 10 µg/ml)
- binding (B57,Bw4_B*57:01 (human)): no binding (tested: 10 µg/ml)
- binding (B64,Bw6_B*14:01 (human)): no binding (tested: 10 µg/ml)
- binding (B56,Bw6_B*56:01 (human)): no binding (tested: 10 µg/ml)
- binding (B78,Bw6_B*78:01 (human)): no binding (tested: 10 µg/ml)
- binding (B45,Bw6_B*45:01 (human)): no binding (tested: 10 µg/ml)
- binding (B67,Bw6_B*67:01 (human)): no binding (tested: 10 µg/ml)
- binding (B44,Bw4_B*44:03 (human)): no binding (tested: 10 µg/ml)
- binding (B38,Bw4_B*38:01 (human)): no binding (tested: 10 µg/ml)
- binding (Cw8_C*08:01 (human)): no binding (tested: 10 µg/ml)
- binding (Cw5_C*05:01 (human)): binds
- binding (Cw17_C*17:01 (human)): binds
- binding (Cw2_C*02:02 (human)): binds
- binding (Cw15_C*15:02 (human)): binds
- binding (Cw18_C*18:02 (human)): binds
- binding (Cw4_C*04:01 (human)): binds
B1: CW6B238 (antibody, V domains shown)
VH: QVTLKESGPVLVKPTETLTLTCTVSGFSLNNARMGVSWIRQPPGKALEWLAHMFSSDEKFYRTSLKSRLTISKDTSKSQVVLTMTNMDPVDTATYYCARISLYSSGHDTFDLWGQGTMVTVSS
VL: AIQMTQSPSSLSASVGDRVTITCRASQDIRNTLGWYQQKPGKAPNLLIYAASSLQSGVPSRFSGSGSGTDFTLTISSLQPEDFATYYCLQDYDYPLTFGGGTKVEIK

These are yes or no findings as the source states them, for the method shown. For part of these data: Binding calls can cover weak binding; strength is not graded here.
